Experimental data: PubChem BioAssay AID504764 (Drosophila RNAi Screening Center, 2011)

- Assay: 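Genome-wide screen for regulators of Notch-driven gene expression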 (primary screen)
- Cells: Drosophila Kc167 cells
- Reagents: long dsRNA against Drosophila genes
- Duration: about 5 days (4 days dsRNA, then 24 h after transfection)
- Conditions: transfection of constitutively active membrane-tethered Notch lacking the extracellular domain, read 24 h later
- Measured: 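Firefly luciferase from an E(spl)m3 reporter with active Notch, plus control-promoter and uninduced reporter wells for normalisation; unnormalised counts, duplicate wells a and b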
- Direction: induced reporter light, run 1, well a and induced reporter light, run 1, well b: higher = more light from the Notch target reporter with active Notch; control promoter light, run 1, well a and control promoter light, run 1, well b: higher = more light from the viral control promoter (cell number, transfection, viability); uninduced reporter light, run 1, well a: higher = more light from the Notch target reporter without active Notch
- Rule for the call: 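Wells with low control signal or poorly matching duplicates excluded; duplicates averaged; per source plate, z beyond ±2 for induced/control log2 ratio or beyond ±1.8 for induced/uninduced marks a hit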
- Calls: active = modifier hit (raised or lowered Notch signal); inactive = not a hit
The screen tested about 22,000 reagents; below is an unselected part of those that have a named target and a result. Of all reagents, 403 (1.9%) got an active call. 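Unnormalised raw counts per well; ratio z-scores behind the hit calls and whether each hit raises or lowers signal are not deposited.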 A number with no mark means an inactive call. Reagents against one gene are numbered here. Not stated in the record: the amount of reagent.

With knock-down of CG33099, the screen gave induced reporter light, run 1, well a = 1.61e5; induced reporter light, run 1, well b = 1.58e5; control promoter light, run 1, well a = 2.80e5; control promoter light, run 1, well b = 2.07e5; uninduced reporter light, run 1, well a = 13270. After knock-down of CG15482, the record shows induced reporter light, run 1, well a = 1.31e5; induced reporter light, run 1, well b = 1.26e5; control promoter light, run 1, well a = 1.14e5; control promoter light, run 1, well b = 1.27e5; uninduced reporter light, run 1, well a = 11270. Depletion of Polr3H (RNA polymerase III subunit H) resulted in: induced reporter light, run 1, well a = 1.97e5; induced reporter light, run 1, well b = 2.12e5; control promoter light, run 1, well a = 2.24e5; control promoter light, run 1, well b = 1.84e5; uninduced reporter light, run 1, well a = 11760. For Ugt302K1 (UDP-glycosyltransferase family 302 member K1) the deposit lists induced reporter light, run 1, well a = 10025; induced reporter light, run 1, well b = 9260; control promoter light, run 1, well a = 14075; control promoter light, run 1, well b = 16455; uninduced reporter light, run 1, well a = 670. Silencing of Phyhd1 (Phytanoyl-CoA dioxygenase domain containing 1) gave: induced reporter light, run 1, well a = 66120; induced reporter light, run 1, well b = 87685; control promoter light, run 1, well a = 77420; control promoter light, run 1, well b = 77910; uninduced reporter light, run 1, well a = 3895. For CG9993 the deposit lists induced reporter light, run 1, well a = 38550; induced reporter light, run 1, well b = 42705; control promoter light, run 1, well a = 38225; control promoter light, run 1, well b = 48860; uninduced reporter light, run 1, well a = 2065.

Knock-down of CG13578 gave: induced reporter light, run 1, well a = 2.22e5; induced reporter light, run 1, well b = 1.94e5; control promoter light, run 1, well a = 1.89e5; control promoter light, run 1, well b = 1.97e5; uninduced reporter light, run 1, well a = 14145. Zif (Zinc-finger protein) scored induced reporter light, run 1, well a = 1.23e5; induced reporter light, run 1, well b = 1.30e5; control promoter light, run 1, well a = 1.53e5; control promoter light, run 1, well b = 1.66e5; uninduced reporter light, run 1, well a = 15235. Against Or85b (Odorant receptor 85b), the values are induced reporter light, run 1, well a = 95910; induced reporter light, run 1, well b = 1.21e5; control promoter light, run 1, well a = 1.31e5; control promoter light, run 1, well b = 1.23e5; uninduced reporter light, run 1, well a = 9190. With knock-down of Hr38 (Hormone receptor-like in 38), the record shows induced reporter light, run 1, well a = 32005; induced reporter light, run 1, well b = 23880; control promoter light, run 1, well a = 14480; control promoter light, run 1, well b = 18880; uninduced reporter light, run 1, well a = 2545.

2 entries already listed, sorted by “uninduced reporter light, run 1, well a”, ascending:
Ugt302K1 (UDP-glycosyltransferase family 302 member K1) | induced reporter light, run 1, well a: 10025; induced reporter light, run 1, well b: 9260; control promoter light, run 1, well a: 14075; control promoter light, run 1, well b: 16455; uninduced reporter light, run 1, well a: 670
Phyhd1 (Phytanoyl-CoA dioxygenase domain containing 1) | induced reporter light, run 1, well a: 66120; induced reporter light, run 1, well b: 87685; control promoter light, run 1, well a: 77420; control promoter light, run 1, well b: 77910; uninduced reporter light, run 1, well a: 3895

Continued.
CG17929 gave induced reporter light, run 1, well a = 2.46e5; induced reporter light, run 1, well b = 2.26e5; control promoter light, run 1, well a = 2.79e5; control promoter light, run 1, well b = 2.68e5; uninduced reporter light, run 1, well a = 20845. After knock-down of CG7406, the record shows induced reporter light, run 1, well a = 76615; induced reporter light, run 1, well b = 84285; control promoter light, run 1, well a = 1.32e5; control promoter light, run 1, well b = 1.30e5; uninduced reporter light, run 1, well a = 9915. After knock-down of spdo (sanpodo), the screen gave induced reporter light, run 1, well a = 67520; induced reporter light, run 1, well b = 1.08e5; control promoter light, run 1, well a = 1.09e5; control promoter light, run 1, well b = 1.12e5; uninduced reporter light, run 1, well a = 10940. Depletion of CG44433 #1 resulted in: induced reporter light, run 1, well a = 86005; induced reporter light, run 1, well b = 63015; control promoter light, run 1, well a = 93435; control promoter light, run 1, well b = 79805; uninduced reporter light, run 1, well a = 6905. CG44433 #2 showed induced reporter light, run 1, well a = 46365; induced reporter light, run 1, well b = 48040; control promoter light, run 1, well a = 50745; control promoter light, run 1, well b = 60445; uninduced reporter light, run 1, well a = 6175. For Osi12 (Osiris 12), the entry reads induced reporter light, run 1, well a = 42555; induced reporter light, run 1, well b = 75390; control promoter light, run 1, well a = 74575; control promoter light, run 1, well b = 60445; uninduced reporter light, run 1, well a = 3805.

With knock-down of CG34231, the screen gave induced reporter light, run 1, well a = 2.33e5; induced reporter light, run 1, well b = 2.66e5; control promoter light, run 1, well a = 2.73e5; control promoter light, run 1, well b = 2.71e5; uninduced reporter light, run 1, well a = 20840. Tmtc3 (Transmembrane O-mannosyltransferase targeting cadherins 3) scored induced reporter light, run 1, well a = 1.36e5; induced reporter light, run 1, well b = 1.48e5; control promoter light, run 1, well a = 1.03e5; control promoter light, run 1, well b = 1.06e5; uninduced reporter light, run 1, well a = 8245. With knock-down of CG9360, the record shows induced reporter light, run 1, well a = 1.05e5; induced reporter light, run 1, well b = 1.06e5; control promoter light, run 1, well a = 1.38e5; control promoter light, run 1, well b = 1.32e5; uninduced reporter light, run 1, well a = 7850. For gammaSnap2 (gamma Soluble NSF attachment protein 2), the values are induced reporter light, run 1, well a = 77000; induced reporter light, run 1, well b = 75445; control promoter light, run 1, well a = 1.04e5; control promoter light, run 1, well b = 70880; uninduced reporter light, run 1, well a = 3238. For CG7330 #1, the values are induced reporter light, run 1, well a = 2.18e5; induced reporter light, run 1, well b = 1.81e5; control promoter light, run 1, well a = 2.31e5; control promoter light, run 1, well b = 2.29e5; uninduced reporter light, run 1, well a = 10295. Knock-down of CG7330 #2 resulted in: induced reporter light, run 1, well a = 2.54e5; induced reporter light, run 1, well b = 1.99e5; control promoter light, run 1, well a = 2.49e5; control promoter light, run 1, well b = 2.17e5; uninduced reporter light, run 1, well a = 7895.

CG12691 gave induced reporter light, run 1, well a = 1.61e5; induced reporter light, run 1, well b = 1.64e5; control promoter light, run 1, well a = 2.69e5; control promoter light, run 1, well b = 2.61e5; uninduced reporter light, run 1, well a = 11355. For CG4218 the deposit lists induced reporter light, run 1, well a = 1.46e5; induced reporter light, run 1, well b = 1.51e5; control promoter light, run 1, well a = 1.36e5; control promoter light, run 1, well b = 1.20e5; uninduced reporter light, run 1, well a = 13670.
